The values that follow come from paper PMC9372085.

In the assay the target is T1, Nono (mouse (endogenous in bone marrow cells)) (UniProt Q99K48).
T1 sequence: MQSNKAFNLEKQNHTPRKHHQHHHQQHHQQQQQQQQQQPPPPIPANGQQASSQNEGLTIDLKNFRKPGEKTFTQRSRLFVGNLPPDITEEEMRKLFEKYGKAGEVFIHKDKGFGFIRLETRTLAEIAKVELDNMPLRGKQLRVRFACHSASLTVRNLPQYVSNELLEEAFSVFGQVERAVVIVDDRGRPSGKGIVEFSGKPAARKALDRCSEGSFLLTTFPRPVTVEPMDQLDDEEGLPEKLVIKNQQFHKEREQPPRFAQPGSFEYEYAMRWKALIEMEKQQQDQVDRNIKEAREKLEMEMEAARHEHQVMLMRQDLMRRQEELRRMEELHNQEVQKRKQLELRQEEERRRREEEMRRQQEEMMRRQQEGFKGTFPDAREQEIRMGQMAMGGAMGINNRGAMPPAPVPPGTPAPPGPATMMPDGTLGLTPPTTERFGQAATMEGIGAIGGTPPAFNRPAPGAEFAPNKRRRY
Put plainly: co-IP; mouse bone marrow cell lysates incubated with anti-Nono antibody or IgG, followed by western blotting. (In western blotting, separated proteins are transferred to a membrane and probed.)

These are yes or no findings as the source states them, for the method shown. In cells and extracts the contact can be indirect. Some binding calls cover weakened binding; strength is not graded here.

Consider “histone methyltransferase Ash1l (from UniProt Q99MY8 1-2958) (enzyme)”, for which the binding entry is given as “binds”.
